Data reported in PMC3942490.
These are yes or no findings as the source states them, for the method shown. In cells and extracts the contact can be indirect. Some results given as binding are weak or reduced against the parent protein; the word gives no strength. Sequences can lack the tags named with a protein.

Target: T1, GRF6 tagged with the hemagglutinin (HA) epitope (Arabidopsis thaliana) (UniProt P48349)
T1 sequence: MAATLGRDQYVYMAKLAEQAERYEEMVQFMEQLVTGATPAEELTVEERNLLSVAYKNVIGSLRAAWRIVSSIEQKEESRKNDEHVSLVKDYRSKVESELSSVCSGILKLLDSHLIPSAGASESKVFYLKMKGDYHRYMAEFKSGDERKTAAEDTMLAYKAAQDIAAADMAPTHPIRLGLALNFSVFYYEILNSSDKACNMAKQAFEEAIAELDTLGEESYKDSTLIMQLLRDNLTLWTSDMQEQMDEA
Test: co-IP; fusion proteins transiently coexpressed in N. benthamiana leaves; cleared extracts in TBS with 5 mM DTT, protease and phosphatase inhibitors, incubated 2 h at 4°C with conjugated antibodies (anti-MaBP or anti-HA); washes TBS, TBS 0.5% Triton X-100, TBS 0.3 M NaCl 1% NP-40; Western blot of the immunoprecipitate

B1: MPK11 fused to YFP (protein, UniProt Q9LMM5 1-369)
chain: MSIEKPFFGDDSNRGVSINGGRYVQYNVYGNLFEVSKKYVPPLRPIGRGASGIVCAAWNSETGEEVAIKKIGNAFGNIIDAKRTLREIKLLKHMDHDNVIAIIDIIRPPQPDNFNDVHIVYELMDTDLHHIIRSNQPLTDDHSRFFLYQLLRGLKYVHSANVLHRDLKPSNLLLNANCDLKIGDFGLARTKSETDFMTEYVVTRWYRAPELLLNCSEYTAAIDIWSVGCILGEIMTREPLFPGRDYVQQLRLITELIGSPDDSSLGFLRSDNARRYVRQLPQYPRQNFAARFPNMSVNAVDLLQKMLVFDPNRRITVDEALCHPYLAPLHEYNEEPVCVRPFHFDFEQPSLTEENIKELIYRESVKFNP
**Q.** Which binding does the source give for B1 here?
**A.** The binding was “binds”.
